From US20210317230A1
Results are given in words; binding and its absence hold for the method and conditions named. Some binding calls cover weakened binding; strength is not graded here.

Amino acid sequences for entries named in this document (tags omitted). Residues count along the entry.
UniProt P30530, residues 26-449: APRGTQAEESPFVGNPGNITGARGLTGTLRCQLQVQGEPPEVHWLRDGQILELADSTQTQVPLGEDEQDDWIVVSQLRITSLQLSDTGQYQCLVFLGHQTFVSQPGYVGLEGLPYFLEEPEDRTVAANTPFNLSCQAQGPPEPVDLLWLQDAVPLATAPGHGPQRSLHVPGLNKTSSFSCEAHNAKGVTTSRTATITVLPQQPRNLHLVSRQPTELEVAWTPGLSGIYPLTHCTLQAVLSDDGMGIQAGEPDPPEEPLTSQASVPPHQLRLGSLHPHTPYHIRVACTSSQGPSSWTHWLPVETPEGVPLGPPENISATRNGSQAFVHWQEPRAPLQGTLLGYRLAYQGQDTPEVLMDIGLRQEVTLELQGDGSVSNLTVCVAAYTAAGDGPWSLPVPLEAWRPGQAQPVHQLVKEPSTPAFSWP
UniProt P09758, residues 27-274: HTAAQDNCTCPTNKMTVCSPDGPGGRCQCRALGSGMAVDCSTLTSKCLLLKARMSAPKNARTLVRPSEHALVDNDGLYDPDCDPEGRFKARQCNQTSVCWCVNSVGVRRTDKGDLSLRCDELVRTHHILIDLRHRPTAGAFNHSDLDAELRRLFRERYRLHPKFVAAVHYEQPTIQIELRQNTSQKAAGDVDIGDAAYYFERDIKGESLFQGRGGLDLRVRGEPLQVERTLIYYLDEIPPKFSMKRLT

Experiments:
AXL antigen = AXL antigen (UniProt P30530); test: ELISA, antigen coated, anti-human IgG HRP detection
Trop2 antigen = Trop2 antigen (UniProt P09758); test: as above

Binder | binding (AXL antigen) | binding (Trop2 antigen)
anti-AXL antibody C6G12 (antibody, human IgG1, kappa, V domains shown) VH: QVQLKQSGPGLVKPSQSLSLTCSVTGFSISSGYYWNWIRQFPGNKLEWMGYRSYDGSNNYNPSLKNRISITRDTSKNQFFLKLNSVTTEDTATYYCARGWLLHYTMDYWGQGTSVTVSS VL: ELVMTQSPFSNAVTLGTSASISCRSSRSLLHSNGFTYLYWYLQKPGQSPQLLIYQMSNLASGVPDRFSSSGSGTDFTLRISRVEAEDVGVYYCGQNLELPLTFGAGTKLELKR | binds | 
anti-Trop2 antibody SG701 (antibody, human IgG1, kappa, V domains shown) VH: QVQLVQSGAEVKKPGASVKVSCKASGYTFTNNYIHWVRQAPGQGLEWMGMINPSGGSTTYAQKFQGRLTMTRDTSTSTVYMDLSSLRSEDTAVYYCARAALSYYSIVTAKDYGMDVWGQGTTVTVSS VL: DIQLTQSPSSVSASVGDRVNITCRASQGISSWLAWYQQKPGKAPKLLIYDASNLEAGVPSRFRGSGSGTDFTFTITSLQPEDIATYFCQQYGDFPLTFGQGTKLEIKR |  | binds
